Results reported in the supplement of paper PMC4604168 (melanoma cell lines).
Some of the results follow. Repeats are few or missing, and single values can be far off.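 Cells were imaged in 1,536-well plates, and nuclei stained with an antibody against cleaved PARP were counted against all DNA-stained nuclei to give the apoptosis fraction. Screening doses were chosen to leave most cells alive, and resting and induced cleaved-PARP levels differ strongly between cell lines.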

Experiments:
Experiment in all cases: cleaved PARP positive nuclei fraction relative to DMSO control; melanoma cells; higher = more apoptosis
Conditions in all cases: library dose: low library concentration; 72 h
501Mel = tested on: 501Mel
A101D = tested on: A101D
A2058 = tested on: A2058
A375 = tested on: A375
C32 = tested on: C32
CBRC008 = tested on: CBRC008 (line from a melanoma biopsy)
CBRC013 = tested on: CBRC013 (line from a melanoma biopsy)
CBRC014 = tested on: CBRC014 (line from a melanoma biopsy)
CBRC016 = tested on: CBRC016 (line from a melanoma biopsy)
CBRC017 = tested on: CBRC017 (line from a melanoma biopsy)
COLO792 = tested on: COLO792
COLO800 = tested on: COLO800
COLO829 = tested on: COLO829
G361 = tested on: G361
IPC-298 = tested on: IPC-298
IST-MEL1 = tested on: IST-MEL1
LB2518-MEL = tested on: LB2518-MEL
LOXIMVI = tested on: LOXIMVI
MEL-HO = tested on: MEL-HO
CBRC034 = tested on: CBRC034 (line from a melanoma biopsy)

SMILES	cleaved PARP positive nuclei fraction (501Mel) [%]	cleaved PARP positive nuclei fraction (A101D) [%]	cleaved PARP positive nuclei fraction (A2058) [%]	cleaved PARP positive nuclei fraction (A375) [%]	cleaved PARP positive nuclei fraction (C32) [%]	cleaved PARP positive nuclei fraction (CBRC008) [%]	cleaved PARP positive nuclei fraction (CBRC013) [%]	cleaved PARP positive nuclei fraction (CBRC014) [%]	cleaved PARP positive nuclei fraction (CBRC016) [%]	cleaved PARP positive nuclei fraction (CBRC017) [%]	cleaved PARP positive nuclei fraction (COLO792) [%]	cleaved PARP positive nuclei fraction (COLO800) [%]	cleaved PARP positive nuclei fraction (COLO829) [%]	cleaved PARP positive nuclei fraction (G361) [%]	cleaved PARP positive nuclei fraction (IPC-298) [%]	cleaved PARP positive nuclei fraction (IST-MEL1) [%]	cleaved PARP positive nuclei fraction (LB2518-MEL) [%]	cleaved PARP positive nuclei fraction (LOXIMVI) [%]	cleaved PARP positive nuclei fraction (MEL-HO) [%]	cleaved PARP positive nuclei fraction (CBRC034) [%]
NC1(c2ccc(-c3nc4ccn5c(=O)[nH]nc5c4cc3-c3ccccc3)cc2)CCC1 + O=C(O)c1ccc(-c2c[nH]c3ncc(-c4ccccc4)cc23)cc1C1CCCC1 [GSK650394] (first compound 0.4 µM, partner dose 0.16 µM)	85.5	89.5	102	78.2	44.4	230	120	84.3	90.5	109	314	155	166	105	99.1	35.1	41.8	68.1	83.8	
CCCCCCCCc1ccc(CCC(N)(CO)CO)cc1 [fingolimod] + COc1cc2c(Oc3ccc4[nH]c(C)cc4c3F)ncnc2cc1OCCCN1CCCC1 [cediranib] (first compound 2 µM, partner dose 0.4 µM)	289	174	35.4	228	115	124	176	109	64	110	90.8	142	77.6	121	42.6	97.7	51.2	111	44.5	
CN(c1ncccc1CNc1nc(Nc2ccc3c(c2)CC(=O)N3)ncc1C(F)(F)F)S(C)(=O)=O + OCCn1cc(-c2cnc3nnn(Cc4ccc5ncccc5c4)c3n2)cn1 [PF04217903] (first compound 0.08 µM, partner dose 1 µM)	145	91.6	78.1	180	338	165	138	98.8	114	95.3	100	74	84.9	166	185	49.8	107	279	72.7	
Cn1cnc2c(F)c(Nc3ccc(Br)cc3Cl)c(C(=O)NOCCO)cc21 [selumetinib] + CC1(C)NC(=O)N(c2ccc([N+](=O)[O-])c(C(F)(F)F)c2)C1=O [nilutamide] (first compound 0.015 µM, partner dose 1 µM)	521	27.1	52.6	105	82.5	124	96.4	149	140	135	172	85.4	132	124	40.8	73.2	154	553	89	
C[C@]1(O)C[C@@H](c2nc(-c3ccc4ccc(-c5ccccc5)nc4c3)c3c(N)nccn32)C1 + CS(=O)(=O)CCNCc1ccc(-c2ccc3ncnc(Nc4ccc(OCc5cccc(F)c5)c(Cl)c4)c3c2)o1 [lapatinib] (first compound 0.4 µM, partner dose 0.8 µM)	72.8	244	223	153	82.9	177		107	86.4	84	118	109	152	119	79.5	118	46.9	128	169	91.7
CC1(C)CCC(c2ccc(Cl)cc2)=C(CN2CCN(c3ccc(C(=O)NS(=O)(=O)c4ccc(N[C@H](CCN5CCOCC5)CSc5ccccc5)c(S(=O)(=O)C(F)(F)F)c4)cc3)CC2)C1 + C[C@@H](N)c1ccc(C(=O)Nc2ccnc3[nH]ccc23)cc1 [RKI983] (first compound 0.4 µM, partner dose 0.4 µM)	62.4	428	182	753	231	246		585	447	392	529	138	105	290	173	174	114	188	289	390
NC1(c2ccc(-c3nc4ccn5c(=O)[nH]nc5c4cc3-c3ccccc3)cc2)CCC1 + COc1cc(Nc2ncc(F)c(Nc3ccc4c(n3)NC(=O)C(C)(C)O4)n2)cc(OC)c1OC [Tamatinib] (first compound 0.4 µM, partner dose 0.4 µM)	133	61.8	125	317	77.6	288	126	91.5	140	84.2	817	62.1	147	136	116	105	106	94.2	33.1	
CC1(C)CCC(c2ccc(Cl)cc2)=C(CN2CCN(c3ccc(C(=O)NS(=O)(=O)c4ccc(N[C@H](CCN5CCOCC5)CSc5ccccc5)c(S(=O)(=O)C(F)(F)F)c4)cc3)CC2)C1 + C[C@@H]1CCN(C(=O)CC#N)C[C@@H]1N(C)c1ncnc2[nH]ccc12 [CP690550] (first compound 0.4 µM, partner dose 1 µM)	65.8	143	124	113	608	713	246	789	1060	307	300	266	145	130	50.3	384	101	156	84.8	
